This is one part of the list.

The chains behind the UniProt entries cited, without tags or fusion partners.
UniProt Q0JBA9, entry or part of it: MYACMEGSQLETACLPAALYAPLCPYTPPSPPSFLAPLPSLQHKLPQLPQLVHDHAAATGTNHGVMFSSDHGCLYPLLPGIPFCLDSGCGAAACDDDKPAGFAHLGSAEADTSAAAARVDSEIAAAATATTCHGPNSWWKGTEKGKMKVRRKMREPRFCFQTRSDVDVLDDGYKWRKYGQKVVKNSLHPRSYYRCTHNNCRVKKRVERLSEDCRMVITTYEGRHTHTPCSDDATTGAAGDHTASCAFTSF

The test has as its target OsWRKY34 (Oryza sativa, UniProt Q0JBA9 1-250). The test can be described thus: protein-binding microarray (RPBM); PBS, 2% BSA, 51.3 ng/ul salmon testes DNA, 50 uM zinc acetate, 200 nM TF, 25 C, 1 h; high values mean tight binding. The following applies: protein: recombinant; tags: N-terminal polyhistidine and DsRed monomer fusion (pET32a); label: CyDye5-dUTP incorporated in the synthesized complementary strand; 3' TTTTT single-stranded linker to array surface; dsDNA, one strand shown. The procedure, abridged: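 In PBS with 2% BSA, salmon testes DNA and 50 µM zinc acetate, 200 nM protein was incubated on a custom Agilent array at 25 °C for 1 h and then washed off. The array had been made double-stranded by primer extension with Cy5-dUTP and blocked with 2% BSA. The proteins were transcription factors fused N-terminally to polyhistidine and DsRed, expressed in E. coli BL21-CodonPlus and purified on Ni–NTA. The binding signal is per-feature fluorescence intensity (arbitrary units) from an Axon 4000B scanner.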
Turning to “CGCCAGCGTCTCCCCGTAGGTCAGTCTCGCGCCGCCGCCACGGAGTCACCTAGTGCAG”, the binding signal is 8030 fluorescence intensity (a.u.). In the case of “CTATGATTTTTTCCTTTCCCGCTTGCAGAGTCTTAAAGTACGGAGTCACCTAGTGCAG” it was 10100 fluorescence intensity (a.u.); in that of “GTTCGTCTTACAGTCAGCTACCATCTCACTCCGTACCATTCGGAGTCACCTAGTGCAG”, 8080 fluorescence intensity (a.u.). With “GTACTCACTCTCAGTGTCACTCACTTCACTGCTTACACCGCGGAGTCACCTAGTGCAG”, the binding signal was 9970 fluorescence intensity (a.u.). Regarding “AGACAGGCAATCCCTCCTTCTTTAGTTGTTGTTTTTTAAACGGAGTCACCTAGTGCAG”, the binding signal is 9960 fluorescence intensity (a.u.). As for “CAATGTTGTCTTGACTTTTTTTTAACGTTTAACCATTTGTCGGAGTCACCTAGTGCAG”, the figure is 8940 fluorescence intensity (a.u.). As for “CGACCGCCCAGGCGCCCACCGCCTCCGCCGCTCGCTTCACCGGAGTCACCTAGTGCAG”, the figure is 8290 fluorescence intensity (a.u.); as for “CTCTAATTATAATACCATTATTTGGCACCGAACTTTATCACGGAGTCACCTAGTGCAG”, 8840 fluorescence intensity (a.u.).

Take “CTTGTCCCTTGCTCCCATTCACCACCAGAAAATATACTTTCGGAGTCACCTAGTGCAG”: the binding signal is 8050 fluorescence intensity (a.u.).

For the sequence “TCTCGTTTGTGGCTTCGCTTGCATAGTTGCTGTATCTTTCCGGAGTCACCTAGTGCAG”, the binding signal is 8640 fluorescence intensity (a.u.).

For “GTGTGCGTGCGTGGCTAACTCCTCCTCACCCTCGCTCGATCGGAGTCACCTAGTGCAG”, the binding signal is 8180 fluorescence intensity (a.u.). “TGTCCTTCTTCTTCGCTATTATGCTTTCTTTTCCTTTTTACGGAGTCACCTAGTGCAG”: the binding signal was 8060 fluorescence intensity (a.u.). As for “TATATATACATATGCCTATACTATACTCCCTCCGTTAAAACGGAGTCACCTAGTGCAG”, the binding signal is 8870 fluorescence intensity (a.u.). As for “TGGAAAGGGTAGGAGGGTTGGATATATGGTAGTTGGGGAACGGAGTCACCTAGTGCAG”, the binding signal is 8920 fluorescence intensity (a.u.). For the sequence “GGTGCTCCGCCTCCCGGGGCAGGGTTTCAAGAGGGTGGGTCGGAGTCACCTAGTGCAG”, the binding signal was 10700 fluorescence intensity (a.u.).

As to “CCTCGCCCTTGCCTCGTTCCTCACCCATCCTTCCCTCTCGCGGAGTCACCTAGTGCAG”, the binding signal is 9670 fluorescence intensity (a.u.). As for “ACACCGGCTATTTTTACATTTCACCACTAATCATGCATCTCGGAGTCACCTAGTGCAG”, the figure is 9050 fluorescence intensity (a.u.); as for “AATGTTTGATGTGACAAAATTTCTAGGGTGGGATCTAAACCGGAGTCACCTAGTGCAG”, 9190 fluorescence intensity (a.u.). As for “GTTCTTAAGTTTTTTCATTTATTACATGTCAAAAAGTTTTCGGAGTCACCTAGTGCAG”, the binding signal was 8490 fluorescence intensity (a.u.). In the case of “GGTGGTTTGACGATCGTTCGTGCAGGTACAACTACATATCCGGAGTCACCTAGTGCAG” it was 8650 fluorescence intensity (a.u.); in that of “GAAACAGCTCTATATGTATTTCTACTGGTACTACACCTATCGGAGTCACCTAGTGCAG”, 8480 fluorescence intensity (a.u.); in that of “ATGTAGTATTCTTTAACTCCATCATCACACTTTGGCCACCCGGAGTCACCTAGTGCAG”, 8050 fluorescence intensity (a.u.). As for “TGGTTATGTCATGTCCTTTTGCTTACATATTAGCAACTCGCGGAGTCACCTAGTGCAG”, the binding signal is 10200 fluorescence intensity (a.u.). Take “GCTGTTTTCTTCTACATTGCGTCCGCGTGGCAATCCAGTCCGGAGTCACCTAGTGCAG”: the binding signal was 8980 fluorescence intensity (a.u.). As to “GGATGCATGCTGATGATATATGCTCCTTTTCTTTTGTTTCCGGAGTCACCTAGTGCAG”, the binding signal was 9470 fluorescence intensity (a.u.). As for “CGTGCCCTACGCCGCTGCTGTTCGTCGCCCGGTCTCTAGTCGGAGTCACCTAGTGCAG”, the figure is 11200 fluorescence intensity (a.u.); as for “AGGTGGAGGTGGAGCGGGTGGTTGTCCGGCGTCAGGTTGACGGAGTCACCTAGTGCAG”, 8280 fluorescence intensity (a.u.). As to “CTAGGCTGTGTTGTTGTGTTCTTAGGTGAGGATTGGAAAACGGAGTCACCTAGTGCAG”, the binding signal was 8050 fluorescence intensity (a.u.). Consider “CACGTAATCGCGAACGCGCGACATGTACGCACAGCCACCGCGGAGTCACCTAGTGCAG”, for which the binding signal was 8140 fluorescence intensity (a.u.). Take “AGATGCTGATATACACACACAGACACACAATTTCTTTTCTCGGAGTCACCTAGTGCAG”: the binding signal was 9670 fluorescence intensity (a.u.). As for “GCTGGCTACCAATCAGCTGCTTCTCAGAATCTTAAGCTCCCGGAGTCACCTAGTGCAG”, the binding signal is 8590 fluorescence intensity (a.u.).

As for “AACTACAGTTATCTGTTCGTTTTGGATGGTTATCTGGTGACGGAGTCACCTAGTGCAG”, the binding signal was 8430 fluorescence intensity (a.u.).

As to “ATGGTTTTTAATTTTATTTTTTATATATGCTTGACATGTGCGGAGTCACCTAGTGCAG”, the binding signal was 8760 fluorescence intensity (a.u.). “CTCCATTTTTTGCCATACACGGACCGCACCACATCGTCCGCGGAGTCACCTAGTGCAG”: the binding signal is 10900 fluorescence intensity (a.u.). As to “CGTCCCAACCCCGCGGCCGCTTCGTTCTTGGTCGTCCTCGCGGAGTCACCTAGTGCAG”, the binding signal was 14200 fluorescence intensity (a.u.). For “GTCTCTATGTCTCTATTAACGTATTTTGTAATTAGTTTTTCGGAGTCACCTAGTGCAG”, the binding signal is 9780 fluorescence intensity (a.u.).

Take “AGGCGACCTCACCTACGCGCGCGGCGCGCCCCTGGCCATGCGGAGTCACCTAGTGCAG”: the binding signal is 8730 fluorescence intensity (a.u.). With “TTGTTTCGTTTGGTCAAACATGGACCAGATTATTCTAAACCGGAGTCACCTAGTGCAG”, the binding signal is 8890 fluorescence intensity (a.u.).

Turning to “TATTAAAACCTCCAAATTCCGCTTGCAAGATTGTGTTTTCCGGAGTCACCTAGTGCAG”, the binding signal is 8120 fluorescence intensity (a.u.). “ACGTGGCACTCTCTCGAGAGCTCCCGCCCGCCTATATAAACGGAGTCACCTAGTGCAG”: the binding signal was 9940 fluorescence intensity (a.u.). For “TGGACGCCGTCGCCCTCAACTCCCTTCTCTCTGTCATGTGCGGAGTCACCTAGTGCAG”, the binding signal was 8380 fluorescence intensity (a.u.). Turning to “CTCCCGTTGCAAGTTGTCCCCATCCCTGGTGCTCTTGGTCCGGAGTCACCTAGTGCAG”, the binding signal was 8890 fluorescence intensity (a.u.).

The record behind these values is publication PMC7819943, “Rice protein-binding microarrays: a tool to detect cis-acting elements near promoter regions in rice”.
